Measured values from publication PMC9051519.

T1: FLAG-Cas1 fusion protein (Haloferax volcanii) (UniProt D4GQP0)
T1 sequence: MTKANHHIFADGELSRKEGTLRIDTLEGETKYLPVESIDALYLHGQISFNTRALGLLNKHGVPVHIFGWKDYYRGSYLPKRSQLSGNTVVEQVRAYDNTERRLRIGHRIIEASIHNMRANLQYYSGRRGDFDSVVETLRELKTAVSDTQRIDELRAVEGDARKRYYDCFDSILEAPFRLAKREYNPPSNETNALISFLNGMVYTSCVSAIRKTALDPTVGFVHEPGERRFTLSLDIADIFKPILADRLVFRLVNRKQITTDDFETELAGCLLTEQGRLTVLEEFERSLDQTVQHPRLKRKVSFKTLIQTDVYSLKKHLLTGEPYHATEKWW


Biological target: T1, FLAG-Cas1 fusion protein (Haloferax volcanii)
Assay: affinity purification with mass spectrometry; FLAG-Cas1 expressed in H. volcanii Δcas1; S100 lysate treated with DNase and RNase A, 150 mM NaCl; anti-FLAG M2 affinity gel overnight at 4°C, washed with 50 mM Tris/HCl pH 7.4, 150 mM NaCl, eluted with 3xFLAG peptide; gel filtration (Superdex 75 Increase), fractions with Cas1 at about 670 kDa analysed by MS; two FLAG-Cas1 purifications, one FLAG-only control

Binder	binding
ATP-dependent DNA helicase Hel308a (enzyme, UniProt D4GYK9 1-827) MRTADLTGLPTGIPEALRDEGIEELYPPQAEAVEAGLTDGESLVAAVPTASGKTLIAELAMLSSVARGGKALYIVPLRALASEKKAEFERWEEYGIDVGVSTGNYESDGEWLSSRDIIVATSEKVDSLVRNNAAWMDQLTCVVADEVHLVDDRHRGPTLEVTLAKLRRLNTNLQVVALSATVGNAGVVSDWLDAELVKSDWRPIDLKMGVHYGNAVSFADGSQREVPVGRGERQTPALVADALEGDGEGDQGSSLVFVNSRRNAESAARRMADVTERYVTGDERSDLAELAAEIRDVSDTETSDDLANAVAKGAAFHHAGLAAEHRTLVEDAFRDRLIKCICATPTLAAGVNTPSRRVVVRDWQRYDGDYGGMKPLDVLEVHQMMGRAGRPGLDPYGEAVLLAKDADARDELFERYIWADAEDVRSKLAAEPALRTHLLATVASGFAHTREGLLEFLDQTLYATQTDDPERLGQVTDRVLDYLEVNGFVEFEGETIQATPVGHTVSRLYLDPMSAAEIIDGLEWAADHRTEKLRALAGETPEKPTRDRSESDESGGFQRASEMVADDGDGGGGEDGVGANGDGDSDDADGVETDRTYPTPLGLYHLVCRTPDMYQLYLKSGDRETYTELCYEREPEFLGRVPSEYEDVAFEDWLSALKTAKLLEDWVGEVDEDRITERYGVGPGDIRGKVETSEWLLGAAERLATELDLDSVYAVREAKKRVEYGVREELLDLAGVRGVGRKRARRLFEAGVETRADLREADKPRVLAALRGRRKTAENILEAAGRKDPSMDAVDEDDAPDDAVPDDAGFETAKERADQQASLGDFE	binds
ATP-dependent DNA helicase MCM (enzyme, UniProt D4GZG5 1-702) MAQAPQNRDLTERFIEFYRNYYREEIGTLAQQYPKEKRSLHIDYDDLYRFDSELADDYITKPGQFQEYAEEALRLFDLPADVKLGQAHVRMRNLPETVDIRNLRVNDDHIGTLISVQGIVRKATDVRPKITEAAFECQRCGTMSYIPQGDGGFQEPHECQGCERQGPFRIDFDQSNFVDSQKLRVQESPEGLRGGETPQSIDINLSDDVTGKVTAGDHVTVVGVLHIEQQTSGNEKTPVFDYYMEGISLTIEDEEFEDMEISDEDVAEIVELSNDPAIYEKMVESVAPAIYGYEQEKIAMILQLFSGVTKHLPDGSRIRGDLHMLLIGDPGTGKSQMLSYIRHIAPRSVYTSGKGSSSAGLTAAAVRDDFGDGQQWTLEAGALVLADKGIAAVDELDKMRPEDRSAMHEGLEQQQISVSKAGINATLKSRCSLLGAANPKYGRFDQYEPIGEQIDLEPALISRFDLIFTVTDDPDPDEDSKLADHILKTNYAGELNTQRTNVANSEFTEQQVDAVTDEVAPTIDADLLRKYIAYAKRTCYPTMTDEAKEVIRDFYVDFRARGADEDAPVPVTARKLEALVRLGEASARVRLSDKVTREDAERVTGIVESCLRDIGMDPETGEFDADIVETGRSKTQRDRIKNLLELIRTMQEEYEEGAPHEEVLERANSELNMDEKTVNDQLDKLKMKGDIYEPRGDVYRAT	binds
DNA-directed RNA polymerase subunit A (protein, UniProt D4GZX6 1-976) MSMQTPKEIGSIQFGLMDPETYRDMSATKVITADTYDDDGYPIDMGLMDPRLGVIDPGLQCRTCGQHSGSCNGHFGHIELAAPVIHVGFTKLIRRLLRSTCRECGRLSLTDEEADEYRDKLGRTKELGDDWSDVMKSAVRQARKANRCPHCGSPQHDIKHEKPTTYYEVQNVLAGDYSERIAEAMQPDPDDEDDEGVDPVTLANETGLDAERVNQVLAGEFRPVGDDRKALEKALDLDLTEEDMNKLMPSDIRDWFEDVPDEDLVTLGIDPDRSRPEWMILTVLPVPPVTARPSITLDNGQRSEDDLTHKLVDIIRINQRFMENREAGAPQLIIEDLWELLQYHVTTFIDNEISGTPPARHRSGRPLKTLSQRLKGKEGRFRGSLSGKRVNFSARTVISPDPTLSLNEVGVPDRVASEMTQTMNVTERNVDEARQYVRNGPESHPGANYVRRPDGRRLKVTEKNCEELAEKVELGWEVNRHLVDGDIVIFNRQPSLHRMSIMAHEVVVMPYKTFRLNTVVCPPYNADFDGDEMNMHALQNEEARAEARVLMRVQEQILSPRFGENIIGAIQDHISGTYLLTHDNPEFVETQALDLLRATRVDTLPEPAGENEGGQPYWTGQQIFSELLPDDLNMEFTSKVGDTVSIEDGQLVQGTIDEDAVGAFGGEIVDALAKDYSKTRSRIFINEIASLAMRAIMHFGLSIGIDDESIPDEATAQVDEAIDAAYDKIQELIEIYEAGELESLPGRSVDETLEMKIMQRLGKARDSAGEIAEDHFEEDNPAVVMSKSGARASMLNLTQMAGCVGQQAVRGERINRGYEGRTLSHYQKGDLSAEAHGFVENSYRAGLTPREFFFHAMGGREGLVDTAVRTSKSGYLQRRLINALSELEAQYDGSVRDTSGTIVQFEFGEDGTSPVKVSSDDETPIDVENIADRILTSEFSSDEEKERFLGERAPPTNLSEHAEPRVDARAGVESDD	binds
AAA-type ATPase (CDC48 subfamily) (enzyme, UniProt D4GWM8 1-743) MNEVQLEVAKAYPNDSGRGIARLDPDTLLHLKLSPGDIIEIEGGKTTAAKVWRADRQDWNTDTVRIDGFTRQNADVGIGERVTIRKAEATKADKLVLAPPEEASVQFGSDAAGMVKRQILKRPVVERDIVPVMSSTNHPFMRSPGQAIPLIAVETKPEGVVLVTEDTDVELREEPISGFEKAGGGITYEDIGGLTNEIQRVREMVELPMKHPQIFKKLGIEPPQGVLLHGPPGTGKTLLARAVANETSASFFSIAGPEIISKYYGESEQQLREIFEDAKEESPSIIFIDELDSIAPKREDVTGEVERRVVAQLLTMMDGLEARGQVIVIAATNRVDSVDPALRRPGRFDREIEIGVPDEEGRKEILQIHTRGMPLSDDVDLDDLADDTHGFVGADIEALTKEAAMKALRRYLPEIDLDREDIPPSLIDRMVVKNDDFGGALGEVEPSAMREVLVEIPKVTWNDVGGLEGPKQKVQESVEWPLTTPEKFQRMGIEAPKGVLLYGPPGTGKTLIAKAVANETNANFISVRGPQLLSKWVGESEKAIRQTFRKARQVSPTIIFFDELDALAPARGNDMGNNVSERVVNQLLTELDGLEDAGNVMVIAATNRPDMIDPALIRSGRFDRLVLIGQPEEEGREQILDIHTQQSPLAPDVSLREIAEITDGYVGSDLESICREAAIEALREDSDAEEIEMRHFRKAMESVRPTITEELMRYYEDIQDQFKGGSREGLSPDTRDGGRIGFQ	binds

Now from value to binder:

binding	Binder
binds	ribonuclease J (enzyme, UniProt D4GW49 1-450) MEIEIATIGGYEEVGRQMTAVRAGDDVVVFDMGLNLSQVLIHDNVETEKMHSLDLIDMGAIPDDRVMSDLEGDVQAIVPTHGHLDHIGAISKLAHRYDAPVVATPFTIELVKQQIEGENKFNVNNDLVKMEAGETMSIGDSGNVELEFVHVTHSIIDAINPVVHTPEGAVVYGLDKRMDHSPVLEDPIDMKRFREIGREGNGVLAYIEDCTNAGRKGRTPSESVARRHLKDVMTSVEDYDGGIVATTFSSHISRVSSLVEFAKDIGRQPVLLGRSMEKYSGTAERLGFVDLPDDLGMYGHRKSVDRTFKRIMKEGKENYLPIVTGHQGEPRAMLTRMGRGETPYEIDDGDKVIFSARVIPEPTNEGQRYQSERLLRMQGARIYDEIHVSGHLREEGHYEMLQALQPQHVIPAHQNLKGFAPYVDLAESQGYALGRDLHVTRNGNMIQLVE
binds	UvrABC system protein B (protein, UniProt D4GYM4 1-698) MSESGPLSADRPDADREFRVDAPFDPAGDQPEAIEALARGFREGADVQTLLGVTGSGKTNTVSWVVEEIQKPTLVLAHNKTLAAQLYEEFKGLFPDNAVEYFVSYYDYYQPEAYIEQTDTYIDKDMSINEEIDRLRHSATRSLLTRDDVIVVASVSAIYGLGDPKNYTDMSLRLEVGQGMDRDELLRALVDLNYERNDVDFRQGTFRVRGDTVEVFPMYGRYAVRIEFWGDEIDRMLKLDPLEGEVKSSEPAVLVHPAEHYSIPEEQLEGAISEIEELMEQRVKHFQRQGDLVAAQRIEERTTFDIEMLRETGHCSGIENYSVHLSDREPGDAPYTLLDYFPDDFLTVIDESHVTLPQIKGQYAGDKSRKDSLVENGFRLPTAYDNRPLTFEEFEETVGQTLFASATPGDYEREHSDQIVEQIVRPTHLVDPKVEVTEATGQVDDLMARIDERIDRDERVLVTTLTKRMAEDLTEYLEEAGVDVAYMHDETDTLERHELIRSLRLGDIDVLVGINLLREGLDIPEVSLVAILDADQQGFLRSETTLVQTMGRAARNVNGEVVLYADEMTDAMEAAISETQRRRRIQQEFNEEHGYTPTTIEKEVGETNLPGSKTDTRGVSGDEPADADEAVEQIAFLEDRMQEAADNLEFELAADIRDRIQNLRREFDVDALEDGVAPEYPDEHDGEADDGLTPPDEF
binds	repair helicase UvrD (enzyme, UniProt D4GRV6 1-616) MSESDVTVTRLFGGPGSGKTTALLDKVEEILEQDGVTIRDILVVSYTRAAAAEVRDRLAERLDINPRSLKGNVSTMHAKAYELLSLSRNDVVGESDKQEFCEDYGVEFEDEYGGAGRRTARSTTIGNKVIATSQWLQRTRRDVSDWYDVPFQWNVEEVRLPPEVDPNAQEGNKYTPTWPSDDDRIDIPEAIRAWRAYKGEHGLVGFADMLERVKQRALVPNVDYLVIDEFQDITTLQYDVYEEWKPHMRGVLIAGDDDQVVYAWQGADPNLLLDAERDNDEILPNSYRLPSNVLNVVNREIRHIDKRQEKDLKPRKEGGAVEAVESPSMLELARNVRYTVEKDEGTVMVLFRARYQMFQFIDEFLPSGIPFSTLTDQRMWTDRLTQYVRAVEALDAEEPVNGLEARRLADMLQDSAFGTNDRDDLFDAIDDRQEEVGVDDITNIEFTPKEIKNFAPFAPDSSSASDMVRKVTSFQRKSVNAYFGGGYEEMDPSRVRVGTIHSAKGREADHVFMATDLTEKVVEQMAASVSDEELEARGIEEFTATTSPVPLITDNERRVFYVGMSRARERLIVLENLVTGAPTLPISVLLHNEIREEPAQGLVDDAQELPAPEPEA
binds	DNA-directed RNA polymerase subunit B (protein, UniProt D4GZX4 1-521) MNRQARREVSRKYFSEERLAEHHFRSFNAFLERGMMDVVEEKATIETDIGDKEGEEPVYVELGGVRVETPRVREADGSEELLFPQEARLRNITYSAPVFMEMSIVRGGEEEEEVVVDTAETKVGRMPIMVGSSKCNIAELSDEDLVEIGEDPVDPGGYFIVNGSERVLMTSEDLAPNKILAEYDTKYGDEIQVAKTFSQRRGYRALVLCERNREGLLEVSFPSVSGSVNFVTLVRALGLESDEEIVHRVSDDPEIVKFMLENLEEAEVQTQEQAIEALGKRVAGGQGKNYQLKRANYVIDRYLLPHLHEEGAEEEEVRMNKAYYLCRMAEACFELALQRRDSDDKDHYANKRLKVSGDLMKDLFRTALNKLARDVKYQLERANMRNRNLTVNTVVRSDVLTERLEHPIATGNWVGGRSGVSQLVDRTDYMGVLSHLRRLRSPLSRSQPHFEARDLHATQWGRICPSETPEGPNCGLVKNFAQAMELSQNVEDEQSLKRELASMGVEGIPGIDSVDAAPADD

Results are given in words; binding and its absence hold for the method and conditions named. Binding seen in cells or lysates may run through a third protein. These calls come from enrichment with a bait or labelling near it, and not all partners need be listed. Sequences can lack the tags named with a protein.
